Publication PMC12040169 (PLOS Biology, 2025)
The other results are listed elsewhere or left out.

Tested on: T1, CTL2-GFP (C. trachomatis L2/434/Bu, GFP-expressing)
T1 construct: L2/434/Bu, GFP-expressing
Parameters: species or system HeLa; Intracellular C. trachomatis growth in HeLa cells, bulk GFP fluorescence relative to DMSO
Details: bulk GFP, single well; 28.5 h, 10 µM; inhibitor

Compound | % of control remaining [%]
Cc1csc(Sc2cc(N3CCCC3)ncn2)n1 [CBK093745] | 92.4128
NC(=O)C1CCN(C(=O)Cc2csc(COc3ccc(Cl)cc3)n2)CC1 [CBK304519] | 119.737
CC(=O)c1cccc(NC(=O)Cn2nc(C)ccc2=O)c1 [CBK304653] | 140.475
Oc1c(CN2CCN(Cc3ccc4cccnc4c3O)CC2)ccc2cccnc12 [CBK261994] | 87.5927
Cc1ccc2c(CC(=O)N(C)CCN(C)C)c(C)[nH]c2c1C [CBK282157] | 135.648
O=C(N/N=C/c1ccc(O)cc1)c1c[nH]c2ccccc12 [CBK262193] | 136.448
COc1cccc(/C=C2\SC(=S)N(CC(=O)NNC(=O)c3ccccc3O)C2=O)c1 [CBK262202] | 119.456
COc1ccc(C(=O)Nc2ccc(CC(=O)O)cc2)cc1 [CBK269736] | 114.487
Cc1cc2nnc(SCC(=O)Nc3ccc4c(c3)OCO4)n2c2ccccc12 [CBK265926] | 104.734
Nc1cc2ccccc2c(-c2ccncc2)n1 [CBK085708] | 146.563
Cc1cnc(CNC(=O)N(CCC#N)C2CCCCC2)cn1 [CBK156352] | 124.957
O=C1Nc2c(cnn2-c2ccc(F)cc2)C2=NCCN12 [CBK284351] | 111.075
CC(=O)Nc1ccc(CNc2ccc(Cl)cc2)cc1 [CBK012799] | 106.273
Cc1cc(NS(=O)(=O)c2cccc3nonc23)n(C)n1 [CBK067247] | 87.4498
CC(NC(=O)/C=C\C(=O)O)c1ccc2c(c1)OCO2 (stereo not drawn) [CBK286996] | 120.393
OCCOc1ccnc2ccccc12 [CBK113395] | 110.825
COc1cc(OC)c2c(c1)OCC1CON(C)C21 (stereo not drawn) [CBK011446] | 128.426
CC(=O)N1CC[C@H]2NC(=O)CNC(=O)C3(CCCC[C@H]2C1)CCN(C(=O)c1n[nH]c2c1CCC2)CC3 [CBK292012] | 129.732
O=C(NC(=S)Nc1ccc(N2CCN(Cc3ccccc3Cl)CC2)cc1)c1ccco1 [CBK266066] | 125.778
Cc1cc(C2CCCCCN2Cc2cc(Cl)ccc2O)on1 (stereo not drawn) [CBK281948] | 110.67
c1ccc2c(c1)OCC(COc1ccnc(N3CCCN(CCN4CCOCC4)CC3)n1)O2 (stereo not drawn) [CBK083976] | 101.97

Compound | % of control remaining [%]
Cc1ccc(S(=O)(=O)Nc2ccc(C(=O)O)cc2)cc1[N+](=O)[O-] [CBK034055] | 145.399
COCc1ccc(-c2nccnc2NS(C)(=O)=O)cc1 [CBK049631] | 206.414
Cc1ccc(S(=O)(=O)NCC(Oc2ccc([N+](=O)[O-])cc2)c2ccccc2)cc1 (stereo not drawn) [CBK262208] | 94.8837
CC(C)c1nc(CC(=O)NCCS(=O)(=O)N2CCc3ccccc32)cs1 [CBK305630] | 117.865
O=C(NCCn1cc[nH]c1=O)c1cnc(-c2ccc(Cl)cc2)c(-c2ccc(O)cc2)c1 [CBK036766] | 153.44
CNc1nc(C)c(C(=O)N2CCCC(COc3ccc(F)cc3)C2)s1 (stereo not drawn) [CBK307234] | 101.852
Cc1ccc(C(=O)Nc2ccccc2)cc1S(=O)(=O)N1CCN(C)CC1 [CBK270076] | 127.173
CN(C)CCN(C)C(=O)c1ccc(-c2ccccc2)nc1N(C)C [CBK106070] | 137.216
CCCS(=O)(=O)NC1CCN(c2nc(C(F)(F)F)nc3[nH]cnc23)CC1 [CBK304587] | 114.37
O=S(=O)(c1ccc(Br)s1)N1CCC(Cc2ccccc2)CC1 [CBK043580] | 141.094
COc1ccc(S(=O)(=O)N2CCCC(C(=O)Nc3ccc(C(N)=O)cc3)C2)cc1C (stereo not drawn) [CBK269163] | 146.478
CCNC(=O)NC[C@@H]1C=C(C)[C@H](CC(=O)N2CCOCC2)C[C@H]1C(C)C [CBK289051] | 120.316
O=c1c2ccccc2nc2n1CCN(Cc1ccc(F)c(F)c1)CC2 [CBK284816] | 105.065
COc1ccc([C@@]23CC[C@@H](NC(=O)Nc4cccc(SC)c4)C[C@@H]2N(C)CC3)cc1OC [CBK036459T] | 103.11
CC(C)[C@H](CO)n1c(=O)[nH]c2ncc(-c3cccc(/C=C/C(=O)O)c3)nc21 [CBK065051] | 118.568
Cn1c(N2CC[C@H](O)C2)nc2cc(C(=O)NCC3CC3)ccc21 [CBK307164] | 122.35
COc1ccc(C(=O)O)cc1NC(=S)NC(=O)c1ccc(-c2cc(Cl)ccc2Cl)o1 [CBK265074] | 100
CCCc1cc(=O)n2c(n1)SCOC2 [CBK010967] | 117.487
CCc1cc(CNC(=O)C2CC3C=CC2C32CC2)on1 (stereo not drawn) [CBK282071] | 132.146
COc1ccc(C2=C(CC(=O)O)C(=O)CC2)cc1 [CBK264812] | 123.488
CC(CCCC(C)(C)O)Nc1cncc(-c2ccccc2CO)n1 (stereo not drawn) [CBK065529] | 143.338

Compound | % of control remaining [%]
Cc1cc(COC(=O)N2CCSCC2)cc(C)n1 [CBK200153] | 145.263
O=C(Cc1ccccc1F)N1CCCC(c2cnccn2)C1 (stereo not drawn) [CBK284601] | 149.7
CCN1CCc2nc(NC(=O)c3ccc(Cl)cc3)sc2C1 [CBK287644] | 123.766
CC(=O)N1CCN(c2nnc(-c3ccccc3)o2)CC1 [CBK170332] | 148.657
Cc1nn(CC(=O)N2CCCCC2)c(=O)c2cc3ccsc3n12 [CBK284078] | 149.309
OCCc1ccc(Nc2cc(-c3cccnc3)ncn2)cc1 [CBK090768] | 134.573
N#C/C(=C\c1cn(-c2ccccc2)nc1-c1cccc(S(=O)(=O)N2CCOCC2)c1)c1nc2ccccc2c(=O)[nH]1 [CBK266357] | 135.397
CCCCNS(=O)(=O)c1ccc(OCC(=O)O)cc1 [CBK268550] | 97.0712
COc1ccc(C2CCCN2S(=O)(=O)c2ccccc2[N+](=O)[O-])cc1OC (stereo not drawn) [CBK295309] | 96.2523
CN(C)CCN(C)c1cncc(-c2cccc3ccccc23)n1 [CBK065709] | 205.942
CSc1sc(C(=O)CC#N)c2c1C=CCC2 [CBK006004] | 152.479
CC(=O)Nc1ccc(-c2nc3cnccc3o2)cc1 [CBK287975] | 135.536
O=C(Cn1c(C2CCNCC2)cc2cccnc21)NC1CCCC1 [CBK285002] | 123.349
CC1Oc2ccccc2OC1C(=O)Nc1nnc(Cc2ccccc2)s1 (stereo not drawn) [CBK295634] | 131.603
CCOC(=O)CC(=O)CSc1nc(C)cc(-c2cccs2)c1C#N [CBK267446] | 146.149
COc1ccc(OCCN2CCC3(CC2)CN(S(C)(=O)=O)c2ccccc23)cc1 [CBK126681] | 67.6527
COC(=O)c1sc2cc(NC(=S)NCc3ccc(S(N)(=O)=O)cc3)ccc2c1Cl [CBK267094] | 179.709
CC(C)(C)c1ccc(COn2c(=O)c(-c3ccccc3Cl)[n+]([O-])c3ccccc32)cc1 [CBK267494] | 113.941
Nc1nnc(SCCC(=O)N2CCN(c3ccc(F)cc3)CC2)s1 [CBK304597] | 114.297
O=S(=O)(NCc1ccc(C(F)(F)F)c(F)c1)c1cccc2nsnc12 [CBK062113] | 144.56
O=C(c1ccc(OC(F)F)cc1)N1CCCc2cc(S(=O)(=O)N3CCCCC3)ccc21 [CBK295621] | 116.876

Part of the list above, field by field.
O=C(Cc1ccccc1F)N1CCCC(c2cnccn2)C1 (stereo not drawn) [CBK284601]
  % of control remaining [%]: 149.7
CCCCNS(=O)(=O)c1ccc(OCC(=O)O)cc1 [CBK268550]
  % of control remaining [%]: 97.0712

(cont.)

Compound | % of control remaining [%]
Cc1ncncc1C(=O)N1CCCCC1CCc1ccccc1 (stereo not drawn) [CBK282264] | 114.618
CCc1nc2sc(C(N)=O)c(N)c2c2c1CCCC2 [CBK131872] | 158.706
O=C(NCCn1ccnc1)C1CC(=O)N(c2cccc(F)c2)C1 (stereo not drawn) [CBK281582] | 140.897
Cc1ccc(O)c(Nc2ncnc3ccc(Br)cc23)c1 [CBK269028C] | 115.897
Cc1cc(C)c2c(n1)sc1c(N3CCC(C(=O)O)CC3)ncnc12 [CBK300512] | 181.562
Cc1c(C(=O)N(C)C2CCNC2)nnn1-c1ccc2ncccc2c1 (stereo not drawn) [CBK304698] | 113.08
O=C(O)c1nc2n(n1)C(C(F)(F)F)CC(c1cccs1)N2 (stereo not drawn) [CBK026415] | 115.473
O=C(NCCc1cccs1)Nc1ccc(F)c(F)c1 [CBK043951] | 83.0372
CN(CC(=O)O)S(=O)(=O)c1ccc2c(c1)OCCO2 [CBK263904] | 100
Cc1ccc(CCC(=O)Nc2nc3c(cc2C#N)CCC3)o1 [CBK306366] | 89.814
O=C(CN1CCOCC1)N/N=C/c1ccncc1 [CBK019949] | 135.53
O=C1CC(c2cccs2)Sc2nc3ccccc3n21 (stereo not drawn) [CBK091627] | 117.125
O=C(c1ccccc1)C(Sc1nnc2sc3ccccc3n12)c1ccccc1 (stereo not drawn) [CBK265416] | 100
O=[N+]([O-])c1ccc(CN2CCC(Oc3cncc(OCCN4CCOCC4)n3)C2)cc1 (stereo not drawn) [CBK084485] | 110.476
O=S(=O)(O)CCCSc1nc2ccccc2s1 [CBK260900N] | 95.501
CCCCc1c(C)nc2ccc(Br)cc2c1SCCC(=O)O [CBK126915] | 108.552
CCc1nnc(N/N=C/c2cccs2)n1N [CBK026233C] | 159.444
Nc1cc(C(=O)c2ccc(Br)c(N)c2)ccc1Cl [CBK269708] | 138.308

A draw from above in order of heavy-atom count, ascending.
Compound | % of control remaining [%]
CCCc1cc(=O)n2c(n1)SCOC2 [CBK010967] | 117.487
CSc1sc(C(=O)CC#N)c2c1C=CCC2 [CBK006004] | 152.479
Nc1cc2ccccc2c(-c2ccncc2)n1 [CBK085708] | 146.563
COc1ccc(C2=C(CC(=O)O)C(=O)CC2)cc1 [CBK264812] | 123.488
CCc1nc2sc(C(N)=O)c(N)c2c2c1CCCC2 [CBK131872] | 158.706
CCc1cc(CNC(=O)C2CC3C=CC2C32CC2)on1 (stereo not drawn) [CBK282071] | 132.146
O=C(O)c1nc2n(n1)C(C(F)(F)F)CC(c1cccs1)N2 (stereo not drawn) [CBK026415] | 115.473
Cc1cnc(CNC(=O)N(CCC#N)C2CCCCC2)cn1 [CBK156352] | 124.957
Cc1nn(CC(=O)N2CCCCC2)c(=O)c2cc3ccsc3n12 [CBK284078] | 149.309
CN(C)CCN(C)C(=O)c1ccc(-c2ccccc2)nc1N(C)C [CBK106070] | 137.216
Cc1c(C(=O)N(C)C2CCNC2)nnn1-c1ccc2ncccc2c1 (stereo not drawn) [CBK304698] | 113.08
CCCS(=O)(=O)NC1CCN(c2nc(C(F)(F)F)nc3[nH]cnc23)CC1 [CBK304587] | 114.37
CC(C)[C@H](CO)n1c(=O)[nH]c2ncc(-c3cccc(/C=C/C(=O)O)c3)nc21 [CBK065051] | 118.568
Cc1cc2nnc(SCC(=O)Nc3ccc4c(c3)OCO4)n2c2ccccc12 [CBK265926] | 104.734
Cc1ccc(S(=O)(=O)NCC(Oc2ccc([N+](=O)[O-])cc2)c2ccccc2)cc1 (stereo not drawn) [CBK262208] | 94.8837
Oc1c(CN2CCN(Cc3ccc4cccnc4c3O)CC2)ccc2cccnc12 [CBK261994] | 87.5927
O=[N+]([O-])c1ccc(CN2CCC(Oc3cncc(OCCN4CCOCC4)n3)C2)cc1 (stereo not drawn) [CBK084485] | 110.476
COc1ccc([C@@]23CC[C@@H](NC(=O)Nc4cccc(SC)c4)C[C@@H]2N(C)CC3)cc1OC [CBK036459T] | 103.11
c1ccc2c(c1)OCC(COc1ccnc(N3CCCN(CCN4CCOCC4)CC3)n1)O2 (stereo not drawn) [CBK083976] | 101.97
CC(=O)N1CC[C@H]2NC(=O)CNC(=O)C3(CCCC[C@H]2C1)CCN(C(=O)c1n[nH]c2c1CCC2)CC3 [CBK292012] | 129.732
N#C/C(=C\c1cn(-c2ccccc2)nc1-c1cccc(S(=O)(=O)N2CCOCC2)c1)c1nc2ccccc2c(=O)[nH]1 [CBK266357] | 135.397
